Library screening results

Measurements from “University of Dundee, Small-Polar-MMV Screening Library” (2021), ChEMBL document CHEMBL3988442.

The filed quantity is “Percent Effect” (%).
The controls that fix the scale are not given in the record; negative values are as filed.
The compounds are a random part of those screened.
Two or more numbers in one place are separate tests of the same structure; such repeats can differ widely.

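Viability assay of Plasmodium falciparum sporozoites; the read-out is not stated. The concentration is filed as 10 mM, unlikely as a test dose, so the dose is not known. Higher reads as lower viability (inferred: compounds with an IC50 in retests scored well above the rest). Strong results were mostly tested again. About 34,000 compounds were tested under these conditions; 0.84% (about 280) showed 50% or more at least once.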

{"smiles": "CCc1nnc2n1CCN(Cc1cc(Cl)c3c(c1)OCCCO3)C2", "percent effect": -7.596}
{"smiles": "Cn1nc(-c2ccc(F)cc2)cc1C(=O)NCCn1ccnc1", "percent effect": 2.81}
{"smiles": "O=C(NCCCn1ccnc1)c1cccnc1OCC(F)(F)F", "percent effect": 11.55}
{"smiles": "COc1ccccc1C(=O)N1CC(=O)N(CC(C)C)CC(O)C1", "stereo": "stereo not given", "percent effect": 12.26}
{"smiles": "[H][C@@]12CCN(C(=O)c3cscn3)C[C@@]1([H])O[C@@H](c1nnc(C3CC3)o1)C2", "percent effect": -6.726}
{"smiles": "Cc1cnn(CC2CCCCN2CC(=O)NCc2ccccn2)c1", "stereo": "stereo not given", "percent effect": -16.57}
{"smiles": "CCOC1COC2(CCN(Cc3ccc(C)cc3)CC2)C1.O=C(O)C(F)(F)F", "stereo": "stereo not given", "percent effect": -7.968}
{"smiles": "CC(C)c1ncc2c(n1)CN(Cc1nc(-c3ccco3)no1)CC2", "percent effect": "18.81 and 12.93 and 2.678"}
{"smiles": "O=C(NCc1ccccc1CN1CCCCCC1)Nc1nncs1", "percent effect": -1.143}
{"smiles": "Clc1cc(Cl)cc(CN2CCC(NCc3ncc[nH]3)CC2)c1", "percent effect": -9.656}
{"smiles": "CN(CC1(CO)CCCC1)[C@@H]1c2ccccc2C2(CCNCC2)[C@H]1O", "percent effect": -1.597}
{"smiles": "CS(=O)(=O)N1CCCC(Cc2cncc(-c3ccccc3C(=O)O)n2)C1", "stereo": "stereo not given", "percent effect": 4.397}
{"smiles": "Cc1ccc(C(=O)NS(C)(=O)=O)cc1-n1cccc1", "percent effect": 19.25}
{"smiles": "O=C(O)C(F)(F)F.c1coc(CN2CCc3nnc(COc4cncnc4)n3CC2)c1", "percent effect": 3.406}
{"smiles": "CN(C)CCOCc1nnc2n1CCN(Cc1ccco1)CC2.O=C(O)C(F)(F)F.O=C(O)C(F)(F)F", "percent effect": 4.722}
{"smiles": "CN(Cc1ccco1)C(=O)Nc1cc(C(F)(F)F)c[nH]c1=O", "percent effect": 11.94}
{"smiles": "CCn1cc(C(=O)NCCc2nc(-c3ccc(C)cc3)n[nH]2)c(C)n1", "percent effect": -1.162}
{"smiles": "CCCN(Cc1ccccc1O)C(=O)Nc1cnn(CCOC)c1", "percent effect": "-30.78 and -27.35"}
{"smiles": "Cc1cnn(CC2CCCCN2Cc2nccn2CC(F)(F)F)c1", "stereo": "stereo not given", "percent effect": -0.06752}
{"smiles": "CN(C)S(=O)(=O)N1CCC(Oc2cnccn2)CC1", "percent effect": -5.475}
{"smiles": "CC(C)NC(=O)CC1COC2(CCN(Cc3ccco3)CC2)C1", "stereo": "stereo not given", "percent effect": 0.361}
{"smiles": "CNCc1cc(F)ccc1Oc1ccc(Cl)cc1", "percent effect": 12.34}
{"smiles": "Cc1nc(CCC(=O)NC2CCC2)cc(C2CCNCC2)n1", "percent effect": -3.345}
{"smiles": "CC(Cn1cccn1)NC(=O)NCc1cccs1", "stereo": "stereo not given", "percent effect": -18.63}
{"smiles": "O=C(O)C(F)(F)F.O=C(O)C(F)(F)F.O=C(O)C(F)(F)F.[H][C@@]12CN(Cc3cccnc3)C[C@]1([H])[C@@H](OC)CCN2Cc1cnn(C)c1", "percent effect": 4.825}
{"smiles": "CCc1ncc2c(n1)CN(C(=O)COC)C2", "percent effect": -6.021}
{"smiles": "c1ccc(NCc2ccsc2)c(Cn2cncn2)c1", "percent effect": 0.3337}
{"smiles": "COc1ncccc1CNC1CCc2c(ccc(=O)n2CC2CC2)C1.O=C(O)C(F)(F)F.O=C(O)C(F)(F)F", "stereo": "stereo not given", "percent effect": -5.063}
{"smiles": "O=C(O)C(F)(F)F.O=C(O)C(F)(F)F.[H][C@@]12COC[C@]1(COc1ccccn1)CN(c1cc(OC)ncn1)C2", "percent effect": 8.432}
{"smiles": "COc1ccc(OCC(=O)NS(=O)(=O)c2cc(F)ccc2F)cc1", "percent effect": -2.471}
{"smiles": "Cc1ccccc1CNC(C)c1ccc(OCC(=O)NC2CC2)cc1", "stereo": "stereo not given", "percent effect": 6.999}
{"smiles": "CC(C)c1nc2c(n1C)CCN(CC(=O)Nc1ccncc1)C2", "percent effect": 5.68}
{"smiles": "Cc1ccc(C(=O)NCc2cccnc2N(C)C)s1", "percent effect": 6.785}